US20200239969A1, “METHODS AND COMPOSITIONS FOR USE OF TREX2 AS DIAGNOSTIC AND PROGNOSTIC MARKER FOR CANCER” (THE BOARD OF REGENTS OF THE UNIVERSITY OF TEXAS SYSTEM, priority 2017, published 2020)
At least one compound was matched to its structure with a doubt left.

System: Crebbp+/− bone marrow cells
Assay: methylcellulose-based colony forming assay
Assay type: cell-based, mouse

## Nc1ncn([C@H]2C[C@H](O)[C@@H](CO)O2)c(=O)n1 [decitabine]
  sensitivity of bone marrow cells in colony forming assay: highly sensitive
